This passage reports binding results from patent US20210338751A1.

For test [1], the target named is GI.1 VLPs (human norovirus genotype GI.1). As to the kind of experiment: blocking assay: GI.1 VLPs (1 ug/ml) pre-incubated with the sample, binding to plate-coated pig gastric mucin (HBGA) detected with biotinylated nanobody NB60.
The target of test [2] is recombinant HuNoV GI.1 P domain (Human Norovirus (HuNoV) GI.1). The test is described as follows: ELISA, Ni-NTA purified VHH from Spirulina. (In general: In an ELISA, binding on a coated surface is turned into a signal by an enzyme label.)
Test [3] has as its target recombinant HuNoV GI.3 P domain (Human Norovirus (HuNoV) GI.3). As to the kind of experiment: ELISA on recombinant GI.3 P domain.
The target of test [4] is recombinant HuNoV GI.1 P domain (Human Norovirus (HuNoV) GI.1). The test is described as follows: ELISA on recombinant GI.1 P domain, normalized absorbance 450 nm against log concentration (M); EC50 printed in Table 5 of the text.
Test [5] has the same target. The test is described as follows: ELISA, Ni-NTA purified protein, lyophilized against stored at 4 C.
Test [6] shares this target. The test is described as follows: ELISA on GI.1 P domain (P1), Ni-NTA purified Spirulina-expressed VHH, dilution series from 20 µg/ml; concentrations not given.
The target is the same in test [7]. As to the kind of experiment: ELISA on recombinant GI.1 P domain.

Results are given in words; binding and its absence hold for the method and conditions named. For some of these results: Binding calls can cover weak binding; strength is not graded here. For some of these results: Tags and fused reporters may be left off the sequences shown.

B1: Nano94-TxnA (VHH)
VHH: QVQLQESGGGLVQAGGSLRLSCAASGRMFSINSMGWYRQAPGKERELVATISEAGTTTYADSVRGRFTIARDNAKNTVYLQMNSLNPEDTAVYYCNAYIQLDSTIWFRAYWGQGTQVTVSS
With B1, the binding entry in test [1] was “binds”; in test [2], “binds”; in test [3] it was “no binding”; in test [4], “binds”; in test [5], “binds”; in test [6] it was “binds”. Moreover, the binding result in test [7] was “binds”.

B2: Nano94-MBP (VHH)
VHH: B1 VHH
As to B2, the binding entry in test [1], in test [2] and in test [6] was “binds” in each case.

B3: Nano94 (no chaperone partner) (VHH)
VHH: B1 VHH
Turning to B3, the binding result in test [2], in test [5] and in test [6] was “binds” throughout.
